# Test results as given in article PMC12394589.
# Amino acid sequences for entries named in this document (tags omitted).
# UniProt Q13547: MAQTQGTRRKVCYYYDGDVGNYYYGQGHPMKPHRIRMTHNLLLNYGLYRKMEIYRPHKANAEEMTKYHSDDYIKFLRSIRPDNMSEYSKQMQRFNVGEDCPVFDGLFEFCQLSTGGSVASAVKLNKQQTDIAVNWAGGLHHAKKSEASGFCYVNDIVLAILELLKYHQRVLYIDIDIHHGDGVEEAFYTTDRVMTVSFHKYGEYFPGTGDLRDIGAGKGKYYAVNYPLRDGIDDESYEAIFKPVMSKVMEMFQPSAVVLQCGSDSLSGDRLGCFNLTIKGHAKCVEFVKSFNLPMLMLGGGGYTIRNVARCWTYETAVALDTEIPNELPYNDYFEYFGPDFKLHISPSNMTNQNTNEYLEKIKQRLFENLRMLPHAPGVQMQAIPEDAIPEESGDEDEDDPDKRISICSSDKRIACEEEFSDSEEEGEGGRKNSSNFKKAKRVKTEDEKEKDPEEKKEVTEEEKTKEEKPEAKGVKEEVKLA
# UniProt Q92769: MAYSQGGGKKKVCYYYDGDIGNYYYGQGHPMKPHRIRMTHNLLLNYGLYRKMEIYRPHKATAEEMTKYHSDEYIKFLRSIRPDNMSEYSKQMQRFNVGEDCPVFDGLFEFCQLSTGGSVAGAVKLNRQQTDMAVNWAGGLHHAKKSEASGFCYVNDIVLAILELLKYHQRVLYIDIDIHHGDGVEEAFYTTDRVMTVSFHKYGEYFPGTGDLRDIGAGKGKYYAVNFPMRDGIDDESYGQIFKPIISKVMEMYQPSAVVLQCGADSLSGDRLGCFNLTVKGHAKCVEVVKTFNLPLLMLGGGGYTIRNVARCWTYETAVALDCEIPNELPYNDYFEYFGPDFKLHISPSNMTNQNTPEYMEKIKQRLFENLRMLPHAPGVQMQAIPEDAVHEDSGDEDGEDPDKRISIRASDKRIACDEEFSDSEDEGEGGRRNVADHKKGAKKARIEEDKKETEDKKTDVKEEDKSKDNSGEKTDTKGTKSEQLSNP
# No constants are given. Whether binding was seen depends on the method and setting. Binding seen in cells or lysates may run through a third protein. Some entries that bind do so weakly or less than the wild type.
# Target: T1, SIAH2 (seven-in-absentia homolog 2, E3 ubiquitin ligase), endogenous (human (endogenous in HEL)) (UniProt O43255)
# T1 sequence: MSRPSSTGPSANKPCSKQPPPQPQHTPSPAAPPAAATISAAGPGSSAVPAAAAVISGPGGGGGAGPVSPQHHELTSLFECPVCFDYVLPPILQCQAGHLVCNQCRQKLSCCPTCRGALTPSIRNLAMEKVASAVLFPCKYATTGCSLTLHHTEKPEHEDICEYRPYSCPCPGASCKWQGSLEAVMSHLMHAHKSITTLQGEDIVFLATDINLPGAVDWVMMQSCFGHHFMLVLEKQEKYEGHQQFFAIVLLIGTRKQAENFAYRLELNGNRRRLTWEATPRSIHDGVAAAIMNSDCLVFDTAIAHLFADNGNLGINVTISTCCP
# Assay: co-IP; anti-SIAH2 (sc-81787) or mouse IgG with 1 mg HEL lysate overnight at 4 °C, protein G Sepharose, one high-salt PBS wash and two PBS washes, immunoblot; cells treated beforehand with 5 nM FK228 or 5 µM MERCK60 for 48 h (Fig. 3f) or with 50 nM bortezomib for 6 h (Fig. 4c)
row,Substance,binding
1,"HDAC1 (histone deacetylase 1), endogenous (from UniProt Q13547 1-482) (enzyme)",binds
2,"HDAC2 (histone deacetylase 2), endogenous (from UniProt Q92769 1-488) (enzyme)",binds
